From publication PMC3542344
No constants are given. Whether binding was seen depends on the method and setting. In cells and extracts the contact can be indirect. Here binding means that the protein was enriched with, or labelled near, the bait; the list need not be complete.

Target: T1, CD133 (human (endogenous in CCC stem cells)) (UniProt O43490)
T1 sequence: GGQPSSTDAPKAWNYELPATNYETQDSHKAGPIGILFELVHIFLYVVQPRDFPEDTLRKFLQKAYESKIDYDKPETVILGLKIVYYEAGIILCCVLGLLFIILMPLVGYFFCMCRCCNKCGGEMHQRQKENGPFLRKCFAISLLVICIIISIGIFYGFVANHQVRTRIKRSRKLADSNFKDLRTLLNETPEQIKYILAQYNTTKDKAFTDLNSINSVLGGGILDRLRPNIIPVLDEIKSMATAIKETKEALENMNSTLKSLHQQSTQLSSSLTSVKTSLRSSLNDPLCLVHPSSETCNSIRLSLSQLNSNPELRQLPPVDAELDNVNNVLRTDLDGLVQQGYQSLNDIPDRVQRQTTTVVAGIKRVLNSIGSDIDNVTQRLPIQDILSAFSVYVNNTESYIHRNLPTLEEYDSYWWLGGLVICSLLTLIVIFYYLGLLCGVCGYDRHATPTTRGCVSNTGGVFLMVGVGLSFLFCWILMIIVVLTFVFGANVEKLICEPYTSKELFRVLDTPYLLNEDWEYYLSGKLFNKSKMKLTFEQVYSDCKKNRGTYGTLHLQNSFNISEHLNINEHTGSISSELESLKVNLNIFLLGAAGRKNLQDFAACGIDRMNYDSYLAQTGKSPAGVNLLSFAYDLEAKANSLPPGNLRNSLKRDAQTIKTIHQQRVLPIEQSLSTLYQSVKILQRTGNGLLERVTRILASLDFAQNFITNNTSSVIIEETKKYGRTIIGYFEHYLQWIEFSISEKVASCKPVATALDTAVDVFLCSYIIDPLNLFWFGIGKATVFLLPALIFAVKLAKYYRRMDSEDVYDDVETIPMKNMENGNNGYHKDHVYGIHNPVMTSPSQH
Assay: affinity purification with mass spectrometry; endogenous CD133 immunoprecipitated from the membrane fraction of CCC stem cells with anti-CD133 immobilised to Activated CH-Sepharose 4B; lysis buffer 50 mM HEPES-NaOH pH 7.5, 150 mM NaCl, 1% NP40, 1 mM dithiothreitol; 4 h at 4°C; eluted with 100 mM Glycine-HCl; LC-MS

binding: binds
B1: plakoglobin (protein, UniProt P14923 1-745)
chain: MEVMNLMEQPIKVTEWQQTYTYDSGIHSGANTCVPSVSSKGIMEEDEACGRQYTLKKTTTYTQGVPPSQGDLEYQMSTTARAKRVREAMCPGVSGEDSSLLLATQVEGQATNLQRLAEPSQLLKSAIVHLINYQDDAELATRALPELTKLLNDEDPVVVTKAAMIVNQLSKKEASRRALMGSPQLVAAVVRTMQNTSDLDTARCTTSILHNLSHHREGLLAIFKSGGIPALVRMLSSPVESVLFYAITTLHNLLLYQEGAKMAVRLADGLQKMVPLLNKNNPKFLAITTDCLQLLAYGNQESKLIILANGGPQALVQIMRNYSYEKLLWTTSRVLKVLSVCPSNKPAIVEAGGMQALGKHLTSNSPRLVQNCLWTLRNLSDVATKQEGLESVLKILVNQLSVDDVNVLTCATGTLSNLTCNNSKNKTLVTQNSGVEALIHAILRAGDKDDITEPAVCALRHLTSRHPEAEMAQNSVRLNYGIPAIVKLLNQPNQWPLVKATIGLIRNLALCPANHAPLQEAAVIPRLVQLLVKAHQDAQRHVAAGTQQPYTDGVRMEEIVEGCTGALHILARDPMNRMEIFRLNTIPLFVQLLYSSVENIQRVAAGVLCELAQDKEAADAIDAEGASAPLMELLHSRNEGTATYAAAVLFRISEDKNPDYRKRVSVELTNSLFKHDPAAWEAAQSMIPINEPYGDDMDATYRPMYSSDVPLDPLEMHMDMDGDYPIDTYSDGLRPPYPTADHMLA
